In test [1] the target is T1, human PC7 (human) (UniProt Q16549).
T1 sequence (looked up): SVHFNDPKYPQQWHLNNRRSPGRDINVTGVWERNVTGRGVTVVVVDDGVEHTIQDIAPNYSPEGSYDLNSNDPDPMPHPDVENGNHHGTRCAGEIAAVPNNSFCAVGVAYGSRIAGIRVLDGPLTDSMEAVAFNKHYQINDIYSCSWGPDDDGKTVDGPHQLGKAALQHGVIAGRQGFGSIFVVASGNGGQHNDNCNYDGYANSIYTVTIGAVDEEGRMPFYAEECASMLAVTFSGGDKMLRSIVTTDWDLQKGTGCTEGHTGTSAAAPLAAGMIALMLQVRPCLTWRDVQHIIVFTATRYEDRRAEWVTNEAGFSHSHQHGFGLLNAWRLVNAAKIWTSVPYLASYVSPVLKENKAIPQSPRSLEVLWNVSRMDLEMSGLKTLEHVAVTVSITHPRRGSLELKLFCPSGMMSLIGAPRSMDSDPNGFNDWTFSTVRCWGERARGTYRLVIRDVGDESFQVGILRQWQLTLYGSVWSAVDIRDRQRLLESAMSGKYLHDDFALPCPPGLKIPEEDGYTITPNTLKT
Description: rapid inhibition assay; listed as potent inhibitor of PC7.

Test [2] deals with T1, human PC7 (human). Description: Ki of purified variants.

No constants are given. Whether binding was seen depends on the method and setting. Some binding calls cover weakened binding; strength is not graded here.

This passage reports binding results from patent publication US20050203007A1.

B1: Tyr49Ala-R4R1-eglin (designed binder)
chain: SMGSELKSFPEVVGKTVDQAREYFTLHYPQYDVYFLPEGSRVTRDLRANRVRVFYNPGTNVVNHVPHVG
For the molecule B1, in the test with human PC7 (human) [1], the binding entry was “binds”.

B2: Met49-R4R1-eglin (designed binder)
chain: SMGSELKSFPEVVGKTVDQAREYFTLHYPQYDVYFLPEGSRVTRDLRMNRVRVFYNPGTNVVNHVPHVG
For B2, the binding result with human PC7 (human) [1] was “binds”.

B3: Trp49-R4R1-eglin (designed binder)
chain: SMGSELKSFPEVVGKTVDQAREYFTLHYPQYDVYFLPEGSRVTRDLRWNRVRVFYNPGTNVVNHVPHVG
As to B3, the binding entry with human PC7 (human) [2] and with human PC7 (human) [1] was “binds” in each case.

B4: Pro38Leu Tyr49Cys R4R1-eglin (designed binder)
chain: SMGSELKSFPEVVGKTVDQAREYFTLHYPQYDVYFLLEGSRVTRDLRCNRVRVFYNPGTNVVNHVPHVG
With B4, the binding result in the test with human PC7 (human) [1] was “binds”.

B5: Val49-R4R1-eglin (Tyr49 to Val) (designed binder)
chain: SMGSELKSFPEVVGKTVDQAREYFTLHYPQYDVYFLPEGSRVTRDLRVNRVRVFYNPGTNVVNHVPHVG
As for B5, in the test with human PC7 (human) [1], the binding entry is recorded as “binds”.
